Reference: PubChem BioAssay AID2685 (National Center for Advancing Translational Sciences (NCATS), 2010)
The other results are listed elsewhere or left out. These are further read-outs of the screen, such as a control signal, another cell line or another target. No call is given for them. Compounds called inactive in the main read-out are mostly missing here. Potencies come from curve fits of mixed quality, noted in brackets.

Experiment: qHTS Assay for Lipid Storage Modulators in Drosophila S3 Cells;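 on cell number change: cells counted by Cell Tracker Red CMTPX staining in the red channel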
Conditions: BODIPY lipid droplet fluorescence, 18-24 h; for cell number change: measured here: cell count max response, cells fed with added oleic acid
Method in brief: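 Drosophila S3 cells loaded with oleic acid (400 uM, as added) and compounds at several concentrations; lipid droplets imaged by 488-nm laser-scanning cytometry, 500–530 nm intensity and object ratio to cell channel. Percent activity normalized to 20 uM Triacsin C.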

[1] = measured here: cell number channel AC50, cells fed with added oleic acid
[2] = measured here: lipid fluorescence (Fed channel) AC50, cells fed with added oleic acid

Compound `O=C(O)CCSC1CC(=O)N(c2ccccc2)C1=O` (stereo not drawn) has a cell number change of -12.7%.
`Cn1c(Cc2ccccc2)nnc1SCC(=O)NC1CC1` gave a cell number change of 4.05%.
For `C/C(=N\N=C(c1ccccc1)c1ccccc1)c1cccs1`, the cell number change was 160%, the AC50 [1] was 29.1 µM [rising, single point] and the AC50 [2] was 23.1 µM [rising, single point].
`C=C(C)COc1ccc(-c2nc(N)nc(C)c2Oc2ccccc2OC)c(O)c1` showed a cell number change of -21%.
In the case of `Cc1nc([N+](=O)[O-])cn1CC(O)c1ccc(F)cc1` (stereo not drawn), the cell number change was -40.2%, the AC50 [1] was 8.2 µM [falling, partial curve] and the AC50 [2] was 20.6 µM [falling, single point].
With `CCc1nnc(SCC(=O)Nc2ccccc2)n1CC1CCCO1` (stereo not drawn) the cell number change was -8.22% and the AC50 [2] was 29.1 µM [rising, partial curve, poor fit].
For `O=C(COc1ncnc2cc([N+](=O)[O-])ccc12)N(CCc1ccccc1)Cc1ccccc1`, the cell number change was 28.1%.
`O=C1C(=O)N(CCN2CCOCC2)C(c2ccccn2)/C1=C(/O)c1ccc(F)cc1` (stereo not drawn) gave a cell number change of 2.59%.
With `COc1ccc(OC)c(-c2nc(C(=O)NC3CCN(Cc4ccccc4)CC3)cc3c2[nH]c2ccccc23)c1` the cell number change was 9.37%.
With `CCN(C(=O)CN1CCN(c2ccc(O)cc2)CC1)c1c(N)n(Cc2ccccc2)c(=O)[nH]c1=O` the cell number change was -1.55% and the AC50 [2] was 0.184 µM [rising, full curve, poor fit].
For `COc1ccc(CC(=O)Nc2c3c(nn2C(C)(C)C)CS(=O)C3)cc1` (stereo not drawn), the cell number change was 13.3% and the AC50 [2] was 23.1 µM [rising, single point].
For `CCN1CCN(c2ccc(S(=O)(=O)N3CCCCC3)cc2NC(=O)COc2ccc(Cl)c(C)c2)CC1`, the cell number change was 23% and the AC50 [2] was 6.51 µM [rising, single point].
For `CCn1c(C(=O)N2CCC(C(=O)NCCCSC3CCCCC3)CC2)cc2sccc21`, the cell number change was -48.2%, the AC50 [1] was 29.1 µM [falling, partial curve] and the AC50 [2] was 25.9 µM [falling, partial curve].
With `Cc1cc(C(=O)CC#N)c(C)n1-c1c(C)n(C)n(-c2ccccc2)c1=O` the cell number change was 59.9%, the AC50 [1] was 29.1 µM [rising, single point] and the AC50 [2] was 29.1 µM [rising, single point].
For `CC1(C)Oc2ccc3ccc(=O)oc3c2/C(=C/O)C1=O`, the cell number change was -2.75% and the AC50 [2] was 23.1 µM [rising, single point].
In the case of `Cc1cc(C)c[n+](CC(=O)c2ccccc2)c1`, the cell number change was 18.9% and the AC50 [2] was 29.1 µM [rising, single point].
For `Cc1nc(N)nc(N/N=C/c2ccccc2)n1`, the cell number change was 1.52% and the AC50 [2] was 0.0206 µM [rising, full curve, poor fit].
`CC1(C)CN(c2ccc(Br)cc2Br)C1=O` showed a cell number change of -23.2%.
